Laboratory results taken from patent US20230192835A1.
These are yes or no findings as the source states them, for the method shown. Some results given as binding are weak or reduced against the parent protein; the word gives no strength.

T1: human TL1A (Fitzgerald, Prod. #30R-AT070) (human) (UniProt O95150)
T1 sequence (biotinylated with EZ-Link Sulfo-NHS-LC-Biotin where used as soluble antigen, looked up): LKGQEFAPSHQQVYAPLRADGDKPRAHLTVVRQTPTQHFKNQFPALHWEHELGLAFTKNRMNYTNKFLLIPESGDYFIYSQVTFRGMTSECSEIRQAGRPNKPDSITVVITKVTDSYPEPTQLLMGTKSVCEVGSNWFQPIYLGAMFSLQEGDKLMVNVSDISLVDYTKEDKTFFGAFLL


Target: T1, human TL1A (Fitzgerald, Prod. #30R-AT070) (human)
Assay: ELISA, both formats (immobilised TL1A; captured Fab with soluble biotinylated TL1A)

| Binder | binding |
| --- | --- |
| Clone 34 Fab (Fab, V domains shown) VH: QVQLVQSGAEVKKPGASVKVSCKASGFDIQDTYMHWVRQAPGQGLEWMGRIEPASGHIKYDPKFQGRVTMTRDTSTSTVYMELSSLRSEDTAVYYCARSGGLPDWWGQGTTVTVSS VL: EIVLTQSPGTLSLSPGERATLSCRASSSVSYMYWYQQKPGQAPRLLIYATSNLASGIPDRFSGSGSGTDFTLTISRLEPEDFAVYYCQQWEGNPRTFGGGTKLEIK | binds |
| Clone 2 Fab (Fab, V domains shown) VH: QVQLVQSGAEVKKPGASVKVSCKASGFDIQDTYMHWVRQAPGQGLEWMGRIEPASGHIKYSPKFQGRVTMTRDTSTSTVYMELSSLRSEDTAVYYCARSGGLPDWWGQGTTVTVSS VL: EIVLTQSPGTLSLSPGERATLSCRASSSVSYMYWYQQKPGQAPRLLIYATSNLASGIPDRFSGSGSGTDFTLTISRLEPEDFAVYYCQQWEGNPRTFGGGTKLEIK | binds |
| Clone 52 Fab (Fab, V domains shown) VH: QVQLVQSGAEVKKPGASVKVSCKASGFDIQDTYMHWVRQAPGQGLEWMGRIEPASGHIKYSPKFQGRVTMTRDTSTSTVYMELSSLRSEDTAVYYCARSGGLPDWWGQGTTVTVSS VL: EIVLTQSPGTLSLSPGERATLSCGASSSVSYMYWYQQKPGQAPRLLIYATSNLASGIPDRFSGSGSGTDFTLTISRLEPEDFAVYYCQQWEGNPRTFGGGTKLEIK | binds |
| Clone 46 Fab (Fab, V domains shown) VH: QVQLVQSGAEVKKPGASVKVSCKASGFDIQDTYMHWVRQAPGQGLEWMGRIEPASGHVKYSPKFQVRVTMTRDTSTSTVYMELSSLRSEDTAVYYCARSGGLPDWWGQGTTVTVSS VL: EIVLTQSPGTLSLSPGERATLSCRASSSVSYMYWYQQKPGQAPRLLIYATSNLASGIPDRFSGSGSGTDFTLTISRLEPEDFAVYYCQQWEGNPRTFGGGTKLEIK | binds |
| Clone 47 Fab (Fab, V domains shown) VH: QVQLVQSGAEVKKPGASVKVSCKASGFDIQDTYMHWVRQAPGQGLEWMGRIEPASGHVKYDPKFQTRVTMTRDTSTSTVYMELSSLRSEDTAVYYCARSGGLPDWWGQGTTVTVSS VL: EIVLTQSPGTLSLSPGERATLSCRASSSVSYMYWYQQKPGQAPRLLIYATSNLASGIPDRFSGSGSGTDFTLTISRLEPEDFAVYYCQQWEGNPRTFGGGTKLEIK | binds |
| Clone 14 Fab (Fab, V domains shown) VH: QVQLVQSGAEVKKPGASVKVSCKASGFDIQDTYMHWVRQAPGQGLEWMGRIDPASGHIKYDPKFQKRVTMTRDTSTSTVYMELSSLRSEDTAVYYCARSGGLPDMWGQGTTVTVSS VL: EIVLTQSPGTLSLSPGERATLSCRASSSVSYMYWYQQKPGQAPRLLIYATSNLASGIPDRFSGSGSGTDFTLTISRLEPEDFAVYYCQQWQGNPRTFGGGTKLEIK | binds |
| Clone 16 Fab (Fab, V domains shown) VH: QVQLVQSGAEVKKPGASVKVSCKASGFDIQDTYMHWVRQAPGQGLEWMGRIDPASGHVKIDPKFQVRVTMTRDTSTSTVYMELSSLRSEDTAVYYCARSGGLPDMWGQGTTVTVSS VL: EIVLTQSPGTLSLSPGERATLSCRASSSVSYMYWYQQKPGQAPRLLIYATSNLASGIPDRFSGSGSGTDFTLTISRLEPEDFAVYYCQQWQGNPRTFGGGTKLEIK | binds |
| Clone 17L Fab (Fab, V domains shown) VH: QVQLVQSGAEVKKPGASVKVSCKASGFDIQDTYMHWVRQAPGQGLEWMGRIDPASGHLKYDPKFQVRVTMTRDTSTSTVYMELSSLRSEDTAVYYCARSGGLPDMWGQGTTVTVSS VL: EIVLTQSPGTLSLSPGERATLSCRASSSVSYMYWYQQKPGQAPRLLIYATSNLASGIPDRFSGSGSGTDFTLTISRLEPEDFAVYYCQQWQGNPRTFGGGTKLEIK | binds |
| Clone 17L-1 Fab (Fab, V domains shown) VH: QVQLVQSGAEVKKPGASVKVSCKASGFDIQDTYMHWVRQAPGQGLEWMGRIDPASGHLKYDPKFQRRVTMTRDTSTSTVYMELSSLRSEDTAVYYCARSGGLPDMWGQGTTVTVSS VL: EIVLTQSPGTLSLSPGERATLSCRASSSVSYMYWYQQKPGQAPRLLIYATSNLASGIPDRFSGSGSGTDFTLTISRLEPEDFAVYYCQQWQGNPRTFGGGTKLEIK | binds |
| Clone 23 Fab (Fab, V domains shown) VH: QVQLVQSGAEVKKPGASVKVSCKASGFDIQDTYMHWVRQAPGQGLEWMGRIDPASGHLKYDPKFQNRVTMTRDTSTSTVYMELSSLRSEDTAVYYCARSGGLPDKWGQGTTVTVSS VL: EIVLTQSPGTLSLSPGERATLSCRASSSVSYMYWYQQKPGQAPRLLIYATSNLASGIPDRFSGSGSGTDFTLTISRLEPEDFAVYYCQQWEGNPRTFGGGTKLEIK | binds |
| Clone A1 Fab (Fab, V domains shown) VH: QVQLVQSGAEVKKPGASVKVSCKASGFDIQDTYMHWVRQAPGQGLEWMGRIDPASGHLKYDPKFQNRVTMTRDTSTSTVYMELSSLRSEDTAVYYCARSGGLPDKWGQGTTVTVSS VL: EIVLTQSPGTLSLSPGERATLSCGASSSVSYMYWYQQKPGQAPRLLIYATSNLASGIPDRFSGSGSGTDFTLTISRLEPEDFAVYYCQQWEGNPRTFGGGTKLEIK | binds |
| Clone 53 Fab (Fab, V domains shown) VH: QVQLVQSGAEVKKPGASVKVSCKASGFDIQDTYMHWVRQAPGQGLEWMGRIEPASGHLKYDPKFQERVTMTRDTSTSTVYMELSSLRSEDTAVYYCARSGGLPDKWGQGTTVTVSS VL: EIVLTQSPGTLSLSPGERATLSCRASSSVSYMYWYQQKPGQAPRLLIYATSNLASGIPDRFSGSGSGTDFTLTISRLEPEDFAVYYCQQWEGNPRTFGGGTKLEIK | binds |
| Clone E1 Fab (Fab, V domains shown) VH: QVQLVQSGAEVKKPGASVKVSCKASGFDIQDTYMHWVRQAPGQGLEWMGRIEPASGHLKYDPKFQERVTMTRDTSTSTVYMELSSLRSEDTAVYYCARSGGLPDKWGQGTTVTVSS VL: EIVLTQSPGTLSLSPGERATLSCGASSSVSYMYWYQQKPGQAPRLLIYATSNLASGIPDRFSGSGSGTDFTLTISRLEPEDFAVYYCQQWEGNPRTFGGGTKLEIK | binds |
| Clone 3-17L V-A Fab (Fab, V domains shown) VH: QVQLVQSGAEVKKPGASVKVSCKASGFDIQDTYMHWVRQAPGQGLEWMGRIDPASGHLKYDPKFQGRVTITRDTSASTAYMELSSLRSEDTAVYYCARSGGLPDMWGQGTTVTVSS VL: EIVLTQSPGTLSLSPGERATLSCRASSSVSYMYWYQQKPGQAPRLLIYATSNLASGIPDRFSGSGSGTDFTLTISRLEPEDFAVYYCQQWQGNPRTFGGGTKLEIK | binds |
| Clone 3-17L Fab (Fab, V domains shown) VH: QVQLVQSGAEVKKPGASVKVSCKASGFDIQDTYMHWVRQAPGQGLEWMGRIDPASGHLKYDPKFQGRVTITRDTSASTVYMELSSLRSEDTAVYYCARSGGLPDMWGQGTTVTVSS VL: EIVLTQSPGTLSLSPGERATLSCRASSSVSYMYWYQQKPGQAPRLLIYATSNLASGIPDRFSGSGSGTDFTLTISRLEPEDFAVYYCQQWQGNPRTFGGGTKLEIK | binds |
| Clone L8mod Fab (Fab, V domains shown) VH: QVQLVQSGAEVKKPGASVKVSCKASGFDIQDTYMHWVRQAPGQGLEWMGRIDPASGHTKYDPKFQGRATITTDTSASTAYLQLSSLRSEDTAVYYCARSGGLPDVWGQGTTVTVSS VL: EIVLTQSPGTLSLSPGERATLSCRASSSVSYMYWYQQKPGQAPRLLIYATSNLASGIPDRFSGSGSGTDFTLTISRLEPEDFAVYYCQQWSGNPRTFGGGTKLEIK | binds |
| Clone X-V Fab (Fab, V domains shown) VH: QVQLVQSGAEVKKPGASVKVSCKASGFDIQDTYMHWVRQAPGQGLEWMGRIDPASGHTKYDPKFQVRATITTDTSASTAYLQLSSLRSEDTAVYYCARSGGLPDFWGQGTTVTVSS VL: EIVLTQSPGTLSLSPGERATLSCRASSSVSYMYWYQQKPGQAPRLLIYATSNLASGIPDRFSGSGSGTDFTLTISRLEPEDFAVYYCQQWSGNPRTFGGGTKLEIK | binds |
| Clone H3-1 Fab (Fab, V domains shown) VH: QVQLVQSGAEVKKPGASVKVSCKASGFDIQDTYMHWVRQAPGQGLEWMGRIDPASGHTKYDPKFQGRATITTDTSASTAYLQLSSLRSEDTAVYYCARSGGLPDLWGQGTTVTVSS VL: EIVLTQSPGTLSLSPGERATLSCRASSSVSYMYWYQQKPGQAPRLLIYATSNLASGIPDRFSGSGSGTDFTLTISRLEPEDFAVYYCQQWSGNPRTFGGGTKLEIK | binds |
| Clone XL3-6 Fab (Fab, V domains shown) VH: QVQLVQSGAEVKKPGASVKVSCKASGFDIQDTYMHWVRQAPGQGLEWMGRIDPASGHTKYDPKFQGRATITTDTSASTAYLQLSSLRSEDTAVYYCARSGGLPDFWGQGTTVTVSS VL: EIVLTQSPGTLSLSPGERATLSCRASSSVSYMYWYQQKPGQAPRLLIYATSNLASGIPDRFSGSGSGTDFTLTISRLEPEDFAVYYCSQWSGNPRTFGGGTKLEIK | binds |
| Clone XL3-10 Fab (Fab, V domains shown) VH: QVQLVQSGAEVKKPGASVKVSCKASGFDIQDTYMHWVRQAPGQGLEWMGRIDPASGHTKYDPKFQGRATITTDTSASTAYLQLSSLRSEDTAVYYCARSGGLPDFWGQGTTVTVSS VL: EIVLTQSPGTLSLSPGERATLSCRASSSVSYMYWYQQKPGQAPRLLIYATSNLASGIPDRFSGSGSGTDFTLTISRLEPEDFAVYYCQQWSGNPRSFGGGTKLEIK | binds |
| Clone XL3-15 Fab (Fab, V domains shown) VH: QVQLVQSGAEVKKPGASVKVSCKASGFDIQDTYMHWVRQAPGQGLEWMGRIDPASGHTKYDPKFQGRATITTDTSASTAYLQLSSLRSEDTAVYYCARSGGLPDFWGQGTTVTVSS VL: EIVLTQSPGTLSLSPGERATLSCRASSSVSYMYWYQQKPGQAPRLLIYATSNLASGIPDRFSGSGSGTDFTLTISRLEPEDFAVYYCQQWSRNPRTFGGGTKLEIK | binds |
| Clone L3-13 Fab (Fab, V domains shown) VH: QVQLVQSGAEVKKPGASVKVSCKASGFDIQDTYMHWVRQAPGQGLEWMGRIDPASGHTKYDPKFQGRATITTDTSASTAYLQLSSLRSEDTAVYYCARSGGLPDFWGQGTTVTVSS VL: EIVLTQSPGTLSLSPGERATLSCRASSSVSYMYWYQQKPGQAPRLLIYATSNLASGIPDRFSGSGSGTDFTLTISRLEPEDFAVYYCQQWKGNPRTFGGGTKLEIK | binds |
